Holding throughout (assay): pull-down
Assay [1] concerns the target GST-Amph1-ΔNBAR WT (amphiphysin-1 without the N-BAR domain, with the SH3 domain) (rat) (UniProt O08838).
For assay [2] the target is unchanged. This is another data set of the same source.
Assay [3] addresses GST-Amph1-ΔNBAR-ΔSH3 SSR (323FFE325 to SSR) (rat).

Sequences of proteins named here, by UniProt entry; tags and fusion partners are left off. A change or cut given only in a name is not applied to a line headed by its entry.
UniProt O08838: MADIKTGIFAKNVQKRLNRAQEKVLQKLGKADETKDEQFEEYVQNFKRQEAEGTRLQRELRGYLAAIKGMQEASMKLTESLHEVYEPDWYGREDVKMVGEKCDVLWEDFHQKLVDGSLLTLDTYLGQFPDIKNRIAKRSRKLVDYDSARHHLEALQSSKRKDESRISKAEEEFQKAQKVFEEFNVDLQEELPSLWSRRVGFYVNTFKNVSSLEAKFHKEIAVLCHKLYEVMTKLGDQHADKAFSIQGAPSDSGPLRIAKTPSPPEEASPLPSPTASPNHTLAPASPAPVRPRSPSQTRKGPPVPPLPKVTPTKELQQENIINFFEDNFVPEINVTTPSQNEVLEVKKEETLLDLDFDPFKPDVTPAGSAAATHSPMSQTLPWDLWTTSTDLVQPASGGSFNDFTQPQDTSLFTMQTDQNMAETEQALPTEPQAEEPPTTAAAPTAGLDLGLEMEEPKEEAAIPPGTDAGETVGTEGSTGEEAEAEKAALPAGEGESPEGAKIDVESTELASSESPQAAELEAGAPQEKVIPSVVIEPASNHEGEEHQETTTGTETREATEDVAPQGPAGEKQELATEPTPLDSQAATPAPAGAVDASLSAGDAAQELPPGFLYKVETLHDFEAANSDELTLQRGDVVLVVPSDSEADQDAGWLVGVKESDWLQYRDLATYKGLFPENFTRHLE
UniProt O35179: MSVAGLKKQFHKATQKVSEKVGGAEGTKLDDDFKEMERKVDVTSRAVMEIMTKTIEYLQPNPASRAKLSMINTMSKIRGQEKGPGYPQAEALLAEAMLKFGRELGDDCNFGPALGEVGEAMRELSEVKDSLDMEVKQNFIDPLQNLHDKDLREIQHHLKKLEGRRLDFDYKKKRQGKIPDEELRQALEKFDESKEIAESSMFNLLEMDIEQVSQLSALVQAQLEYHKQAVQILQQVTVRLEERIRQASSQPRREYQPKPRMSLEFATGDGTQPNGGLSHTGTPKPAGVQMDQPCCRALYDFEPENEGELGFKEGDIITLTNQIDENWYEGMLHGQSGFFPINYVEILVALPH
UniProt P11442: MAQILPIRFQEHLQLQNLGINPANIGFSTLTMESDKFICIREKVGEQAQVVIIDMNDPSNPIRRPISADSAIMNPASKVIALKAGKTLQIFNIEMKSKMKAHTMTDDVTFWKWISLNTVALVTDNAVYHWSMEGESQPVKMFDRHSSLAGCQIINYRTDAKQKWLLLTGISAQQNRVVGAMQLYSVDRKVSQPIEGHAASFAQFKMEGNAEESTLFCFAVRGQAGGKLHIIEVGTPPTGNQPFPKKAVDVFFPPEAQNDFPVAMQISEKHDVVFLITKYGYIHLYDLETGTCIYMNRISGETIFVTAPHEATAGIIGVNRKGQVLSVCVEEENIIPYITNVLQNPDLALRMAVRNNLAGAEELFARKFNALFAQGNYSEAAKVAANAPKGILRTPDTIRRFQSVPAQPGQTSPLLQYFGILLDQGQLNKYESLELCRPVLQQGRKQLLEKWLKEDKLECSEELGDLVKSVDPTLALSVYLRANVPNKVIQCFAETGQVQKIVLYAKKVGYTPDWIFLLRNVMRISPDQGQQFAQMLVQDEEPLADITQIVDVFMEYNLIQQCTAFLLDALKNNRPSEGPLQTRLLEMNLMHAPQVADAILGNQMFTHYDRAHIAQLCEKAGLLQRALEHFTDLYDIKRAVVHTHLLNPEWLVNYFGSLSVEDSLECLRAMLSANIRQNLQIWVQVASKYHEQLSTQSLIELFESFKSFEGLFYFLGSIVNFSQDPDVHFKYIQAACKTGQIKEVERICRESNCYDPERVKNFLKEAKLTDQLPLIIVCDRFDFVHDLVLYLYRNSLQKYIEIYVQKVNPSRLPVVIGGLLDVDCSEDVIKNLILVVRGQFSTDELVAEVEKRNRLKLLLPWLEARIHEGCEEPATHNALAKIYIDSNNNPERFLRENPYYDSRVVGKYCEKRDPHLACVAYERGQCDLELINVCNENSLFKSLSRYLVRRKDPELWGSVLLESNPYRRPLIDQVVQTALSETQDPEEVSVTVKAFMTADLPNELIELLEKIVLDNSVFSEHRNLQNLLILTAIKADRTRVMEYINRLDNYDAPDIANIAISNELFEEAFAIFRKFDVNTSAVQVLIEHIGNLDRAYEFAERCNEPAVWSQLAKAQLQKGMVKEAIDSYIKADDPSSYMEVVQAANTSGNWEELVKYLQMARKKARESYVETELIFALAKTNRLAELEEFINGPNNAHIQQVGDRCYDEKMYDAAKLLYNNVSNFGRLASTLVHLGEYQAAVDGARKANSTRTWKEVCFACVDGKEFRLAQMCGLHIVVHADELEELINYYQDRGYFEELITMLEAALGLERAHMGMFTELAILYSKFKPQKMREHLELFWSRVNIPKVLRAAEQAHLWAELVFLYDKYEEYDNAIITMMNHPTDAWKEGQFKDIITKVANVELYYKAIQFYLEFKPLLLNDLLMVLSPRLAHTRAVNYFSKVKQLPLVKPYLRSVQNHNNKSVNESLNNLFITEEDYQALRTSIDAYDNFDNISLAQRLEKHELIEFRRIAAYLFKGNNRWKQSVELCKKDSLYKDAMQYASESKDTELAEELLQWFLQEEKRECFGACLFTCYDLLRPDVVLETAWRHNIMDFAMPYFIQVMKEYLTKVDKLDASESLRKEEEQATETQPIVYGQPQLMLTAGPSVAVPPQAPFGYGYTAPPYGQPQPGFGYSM

Where two headings read alike, the source gives them in different places. No constants are given. Whether binding was seen depends on the method and setting. In cells and extracts the contact can be indirect. For some of these results: Binding calls can cover weak binding; strength is not graded here.

“endophilin A1 (from UniProt O35179 1-352)”: the binding entry in assay [1] was “binds”.
On to “clathrin heavy chain (CHC) (from UniProt P11442 1-1675)”, for which the binding result in assay [1] is “binds”.

B1: dynamin-1 (Dyn1) (protein, UniProt P21575 1-864)
chain: MGNRGMEDLIPLVNRLQDAFSAIGQNADLDLPQIAVVGGQSAGKSSVLENFVGRDFLPRGSGIVTRRPLVLQLVNSTTEYAEFLHCKGKKFTDFEEVRLEIEAETDRVTGTNKGISPVPINLRVYSPHVLNLTLVDLPGMTKVPVGDQPPDIEFQIRDMLMQFVTKENCLILAVSPANSDLANSDALKIAKEVDPQGQRTIGVITKLDLMDEGTDARDVLENKLLPLRRGYIGVVNRSQKDIDGKKDITAALAAERKFFLSHPSYRHLADRMGTPYLQKVLNQQLTNHIRDTLPGLRNKLQSQLLSIEKEVDEYKNFRPDDPARKTKALLQMVQQFAVDFEKRIEGSGDQIDTYELSGGARINRIFHERFPFELVKMEFDEKELRREISYAIKNIHGIRTGLFTPDLAFEATVKKQVQKLKEPSIKCVDMVVSELTSTIRKCSEKLQQYPRLREEMERIVTTHIREREGRTKEQVMLLIDIELAYMNTNHEDFIGFANAQQRSNQMNKKKTSGNQDEILVIRKGWLTINNIGIMKGGSKEYWFVLTAENLSWYKDDEEKEKKYMLSVDNLKLRDVEKGFMSSKHIFALFNTEQRNVYKDYRQLELACETQEEVDSWKASFLRAGVYPERVGDKEKASETEENGSDSFMHSMDPQLERQVETIRNLVDSYMAIVNKTVRDLMPKTIMHLMINNTKEFIFSELLANLYSCGDQNTLMEESAEQAQRRDEMLRMYHALKEALSIIGDINTTTVSTPMPPPVDDSWLQVQSVPAGRRSPTSSPTPQRRAPAVPPARPGSRGPAPGPPPAGSALGGAPPVPSRPGASPDPFGPPPQVPSRPNRAPPGVPSRSGQASPSRPESPRPPFDL
Turning to B1, the binding entry is listed as “binds” in assay [2] and “no binding” in assay [3].

For the origin of these results see publication doi:10.1101/2023.01.15.524101.
